Laboratory results as given in PMC11477194, “3-Alkoxy-1-Benzyl-5-Nitroindazole Derivatives Are Potent Antileishmanial Compounds” (International Journal of Molecular Sciences, 2024).

Tested on: L. mexicana promastigotes
Test: Susceptibility assay in promastigotes, L. mexicana
Assay type: cell-based
Settings: selectivity index for promastigotes, CC50/IC50, L. mexicana
Excerpt: (§1) The strains used in this research were MHOM/BR/77/LTB0016 of L. amazonensis from the Pedro Kouri Institute of Tropical Medicine Cuba strains collection, MHOM/FR/78/LEM75 of L. infantum from the Department of Parasitology, Faculty of Pharmacy of the Complutense University of Madrid Spain, and MNYC/BZ/62/M379 of L. mexicana from the Laboratory of Molecular Immunobiochemistry and Heart Diseases UNAM-INC Mexico Research Unit. The parasites were obtained from the skin lesions of previously infected BALB/c mice and maintained at 26 °C in Schneider medium (SIGMA, St. Louis, MO, USA) and supplemented with antibiotics (penicillin sodium 200 IU/mL and streptomycin 200 μg/mL SIGMA, St. Louis, MO, USA) and 10% fetal bovine serum (FBS, SIGMA, St. Louis, MO, USA), and inactivated with heat (56 °C, 30 min). The promastigotes, once isolated, were kept in the exponential multiplication phase by successive subcultures every 3 or 4 days until the time of use.
Susceptibility assay in promastigotes: Promastigotes culture in the exponential growth phase were seeded in 96-well plates (10^6 parasites/mL) at a final volume of 200 μL/well. Compounds were tested in serial 1/2.5 dilutions (130–0.2 μM). The treated cultures were incubated for 72 h at 26 °C.
(§2) Every concentration of the test compounds was assessed in quadruplicate.
(§3) Cell viability was assessed using the resazurin transformation method. After the incubation period, 20 μL of 3 mM resazurin solution prepared in sterile PBS was added to each well. Reading was performed at 540 nm excitation and 590 nm emission wavelengths after 8 h of incubation in a 96-well plate reader (SUMA®, Habana, Cuba). The mean fluorescence intensity was calculated for each concentration. From the mean values of fluorescence and the corresponding product concentrations, a non-linear fit to the Emax sigmoid model was performed, and the mean inhibitory concentrations (IC50), mean effective concentrations (EC50), and the mean cytotoxic concentration (CC50) were estimated. The selectivity index was calculated as SIp = CC50/IC50 and SIa = CC50/EC50 for the promastigote and amastigote stages, respectively.

Compared with `NCCCOc1nn(Cc2ccccc2)c2ccc([N+](=O)[O-])cc12` [NV9], `NCCOc1nn(Cc2ccccc2)c2ccc([N+](=O)[O-])cc12` [NV10] is lower in SIp: 17 for the first, 12 for the second.

First: NCCCCCOc1nn(Cc2ccccc2)c2ccc([N+](=O)[O-])cc12 [NV17]
Second: O=[N+]([O-])c1ccc2c(c1)c(OCCCCCBr)nn2Cc1ccccc1 [NV12]
The SIp of the first is higher: 3 for the first, 1 for the second.

First: O=[N+]([O-])c1ccc2c(c1)c(OCCBr)nn2Cc1ccccc1 [NV11]
Second: CN(C)CCOc1nn(Cc2ccccc2)c2ccc([N+](=O)[O-])cc12 [NV4]
The SIp of the first is lower: 0.5 for the first, 32 for the second.

Tested on: L. mexicana intracellular amastigotes
Test: Intracellular amastigote assay, L. mexicana
Assay type: cell-based
Settings: selectivity index for amastigotes, CC50/EC50, L. mexicana
Excerpt: as §1
Intracellular amastigote assay: Macrophages were seeded in 96-well plates at an initial density of 10^5 cells/mL in a final volume of 200 µL per well. After 2 h of incubation at 33 °C and 5% CO2, the cell monolayer was infected with a culture of promastigotes in the stationary phase of growth at a ratio of 10:1 (promastigotes: macrophages) and incubated under the same conditions for 4 h. The compounds were tested in serial dilutions of 1/2.5 (15–0.02 μM). The treated cultures were then incubated for 48 h under similar conditions. After incubation, the RPMI medium was removed and replaced with Schneider’s medium. Cultures were incubated for 72 h at 26 °C to allow the surviving amastigotes to transform into promastigotes and replicate.
as §2, §3

First: CNCCCCCOc1nn(Cc2ccccc2)c2ccc([N+](=O)[O-])cc12 [NV15]
Second: CNCCOc1nn(Cc2ccccc2)c2ccc([N+](=O)[O-])cc12 [NV13]
The SIa of the first is lower: 4 for the first, 5 for the second.

Compared with `O=[N+]([O-])c1ccc2c(c1)c(OCCCCCN1CCCCC1)nn2Cc1ccccc1` [NV16], `O=[N+]([O-])c1ccc2c(c1)c(OCCN1CCCCC1)nn2Cc1ccccc1` [NV7] is higher in SIa: 5 for the first, 8 for the second.

Molecule `CN(C)CCCCCOc1nn(Cc2ccccc2)c2ccc([N+](=O)[O-])cc12` [NV14] has an SIa of 0.3.
